Measured values reported in US20260157955A1, “DEDIFFERENTIATED PLANT CELLS OF THE GENUS PAEONIA, EXTRACTS THEREOF AND COSMETIC USES THEREOF” (L'OREAL, priority 2021, published 2026).
For at least one compound, name, drawing or mass did not settle the structure.

Tested on: markers involved in cellular interactions (CLDN1) and keratinocyte differentiation (AQP3, CNFN, SPRR1A, TGM1)
Assay: Expression of barrier function/moisturization markers in human keratinocytes, summary statements for the marker panel
Assay type: cell-based
Settings: tested at 0.1 M

CC1=C(/C=C/C(C)=C/C=C/C(C)=C/C(=O)O)C(C)(C)CCC1 [Retinoic acid, retinoic acid]
expression of markers CLDN1, AQP3, CNFN, SPRR1A, TGM1 (in words): reduced the expression
